{"source": "patent US20180117000A1", "about": "“ENERGY METABOLIC ACTIVATING AGENT FOR MUSCLE CELLS” (ORYZA OIL & FAT CHEMICAL CO., LTD., priority 2015, published 2018)", "system": "sugar transporter (GLUT4)", "test": "Evaluation of sugar-transporter (GLUT4) gene-expression promotion: GLUT4 mRNA by RT-PCR in C2C12", "format": "cell-based, Mouse", "conditions": "Compounds at 1 μM or 10 μM, C2C12 myoblast cells, cultured one week, GAPDH endogenous control, vs DMSO control, FIG. 2", "note": "At least one structure is not confirmed: it was looked up by name or label, or the drawing left a doubt."}
{"smiles": "COc1ccc(-c2oc3cc(OC)cc(OC)c3c(=O)c2OC)cc1", "note": "[Compound 7, Tetramethylkaempferol]", "values": [{"measurement": "mRNA expression of the sugar transporter (GLUT4)", "value": "Significant expressed-promotion increases"}]}
